Substitutions are numbered along the chain they refer to. Results are given in words; binding and its absence hold for the method and conditions named.
How the values were obtained:
Assay in all cases: SPR (Biacore); BMP/GDF amine-coupled to CM5, mAb flowed at 20 ug/ml
BMP5 = molecular target: BMP5
BMP3 = molecular target: BMP3
BMP7 = molecular target: BMP7
BMP8b = molecular target: BMP8b
BMP6 = molecular target: BMP6
GDF5 = molecular target: GDF5
GDF7 = molecular target: GDF7

Measured: binding

B1: 7D6 human monoclonal antibody (antibody, V domains shown)
VH: QVQLVQSGAEVKKPGSSVKVSCKASGGTFSSYAISWVRQAPGQGLEWMGRIIPILGIVNYAQKFQGRVTITADKSTSTAYMELSSLRSEDTAVYYCARGKDIWGQGTMVTVSS
VL: EIVLTQSPGTLSLSPGERATLSCRASQIVISTYLAWYQQKPGQAPRLLIYGASSRATGIPDRFSGSGSGTDFTLTISRLEPEDFAVYYCQQYGSSPCTFGQGTKLEIK
not listed: GDF5 | GDF7
no binding (tested: 20 ug/ml): all other assays above

B2: 33F7 human monoclonal antibody (antibody, V domains shown)
VH: B1 VH with S35N, I51L, V58A
VL: B1 VL with A19V, I28S, I30S, T32N, Y50K
not listed: BMP7
no binding (tested: 20 ug/ml): all other assays above

B3: 12E3 human monoclonal antibody (antibody, V domains shown)
VH: QVQLVESGGGVVQPGRSLRLSCAASGFTFSSYGMHWVRQAPGKGLEWVAVIWDDGRKKYYADSVKGRFTISRDNSKNTLYLQMNSLRAEDTAVYYCAREPAGVWGMDVWGQGTTVTVSS
VL: DIQMTQSPSSLSASVGDRVTITCRASQGISSWLAWYQQKPEKAPKSLIYAASSLQSGVPSRFSGSGSGTDFTLTISSLQPEDFATYYCQQYNSYPLTFGGGTKVEIK
not listed: BMP5 | BMP7
no binding (tested: 20 ug/ml): all other assays above

B4: 16B7 human monoclonal antibody (antibody, V domains shown)
VH: QVQLVESGGGVVQPGRSLRLSCAASGFTFSNYGIHWVRQAPGKGLEWVAVIWYDGSHKYYADSMKGRFTISRDNSKNTLDLQMNSLRAEDTAVYYCARGSSSWYFDLWGRGTLVTVSS
VL: B3 VL
no binding (tested: 20 ug/ml): BMP3 | BMP8b

B5: 10F6 human monoclonal antibody (antibody, V domains shown)
VH: B4 VH with S30R, N31S, M64V, A97V, S102N, L107Y, R110Q
VL: B3 VL
no binding (tested: 20 ug/ml): GDF5 | BMP3 | GDF7
